Source: paper PMC11737211
These are yes or no findings as the source states them, for the method shown. Binding seen in cells or lysates may run through a third protein. Some binding calls cover weakened binding; strength is not graded here. For some of these results: Tags and fused reporters may be left off the sequences shown.

Chains of the proteins cited; added tags and fusions are not shown.
UniProt Q15717: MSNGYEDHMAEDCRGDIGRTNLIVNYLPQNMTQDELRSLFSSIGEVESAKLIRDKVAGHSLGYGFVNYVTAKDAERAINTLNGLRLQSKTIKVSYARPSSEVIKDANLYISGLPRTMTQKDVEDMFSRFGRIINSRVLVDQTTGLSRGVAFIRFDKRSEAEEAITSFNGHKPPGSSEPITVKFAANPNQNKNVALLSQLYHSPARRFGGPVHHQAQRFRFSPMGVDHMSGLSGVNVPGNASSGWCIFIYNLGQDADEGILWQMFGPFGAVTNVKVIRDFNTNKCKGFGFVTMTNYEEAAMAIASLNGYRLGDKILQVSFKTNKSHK
UniProt P26599: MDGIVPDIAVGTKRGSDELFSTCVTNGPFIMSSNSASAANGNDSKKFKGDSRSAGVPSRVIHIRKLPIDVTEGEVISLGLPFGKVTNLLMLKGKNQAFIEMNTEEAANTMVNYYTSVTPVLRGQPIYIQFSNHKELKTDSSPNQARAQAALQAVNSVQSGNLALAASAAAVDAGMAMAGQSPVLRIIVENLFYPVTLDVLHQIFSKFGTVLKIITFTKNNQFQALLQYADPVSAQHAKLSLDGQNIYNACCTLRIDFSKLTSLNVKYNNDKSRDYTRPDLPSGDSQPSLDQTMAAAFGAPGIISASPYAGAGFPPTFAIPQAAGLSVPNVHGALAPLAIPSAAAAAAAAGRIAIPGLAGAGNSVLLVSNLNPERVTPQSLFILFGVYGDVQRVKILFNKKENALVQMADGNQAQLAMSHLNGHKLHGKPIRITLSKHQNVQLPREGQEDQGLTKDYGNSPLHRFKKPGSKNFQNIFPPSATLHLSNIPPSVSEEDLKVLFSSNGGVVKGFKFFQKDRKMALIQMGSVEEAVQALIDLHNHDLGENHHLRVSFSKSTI

Columns and labels:
[1] = molecular target: T1, cap methyltransferase 1 (CMTR1) (human (endogenous in AGS)) (UniProt Q8N1G2); test: co-IP; endogenous proteins in AGS cells; Protein A/G Magnetic Beads, western blot; also in cells with stable over-expression or silencing of SNORA37 (interaction facilitated or attenuated)
T1 sequence: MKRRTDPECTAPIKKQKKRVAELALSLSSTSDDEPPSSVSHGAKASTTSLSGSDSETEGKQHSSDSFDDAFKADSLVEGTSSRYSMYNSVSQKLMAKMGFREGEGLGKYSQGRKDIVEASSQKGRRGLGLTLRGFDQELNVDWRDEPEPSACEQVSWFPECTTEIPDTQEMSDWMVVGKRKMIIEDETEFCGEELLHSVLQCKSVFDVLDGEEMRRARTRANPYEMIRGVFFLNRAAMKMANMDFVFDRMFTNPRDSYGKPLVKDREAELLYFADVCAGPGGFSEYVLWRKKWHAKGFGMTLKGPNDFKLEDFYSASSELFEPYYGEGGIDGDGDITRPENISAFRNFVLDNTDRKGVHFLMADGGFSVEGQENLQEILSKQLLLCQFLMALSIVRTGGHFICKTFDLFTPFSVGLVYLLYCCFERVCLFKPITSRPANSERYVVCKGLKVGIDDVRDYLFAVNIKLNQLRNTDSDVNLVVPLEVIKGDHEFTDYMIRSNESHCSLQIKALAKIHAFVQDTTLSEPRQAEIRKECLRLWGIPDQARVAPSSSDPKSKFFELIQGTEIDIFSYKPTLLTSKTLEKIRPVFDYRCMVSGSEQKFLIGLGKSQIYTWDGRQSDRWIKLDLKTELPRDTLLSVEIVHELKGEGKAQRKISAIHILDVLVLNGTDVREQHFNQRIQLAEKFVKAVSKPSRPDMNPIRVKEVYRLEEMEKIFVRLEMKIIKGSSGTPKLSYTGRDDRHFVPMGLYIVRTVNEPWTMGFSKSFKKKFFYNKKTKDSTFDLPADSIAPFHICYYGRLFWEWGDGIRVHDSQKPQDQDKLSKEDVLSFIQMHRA

[2] = molecular target: T2, HA-tagged CMTR1 (full-length) (human) (UniProt Q8N1G2); test: co-IP; AGS cells transfected with full-length or truncations of HA-tagged CMTR1 and Flag-tagged ELAVL1 constructs; Protein A/G Magnetic Beads, western blot
T2 sequence: T1 sequence

[3] = molecular target: T3, CMTR1 BiFC fusion (pBiFC-VN173-CMTR1 in the legends; pBiFC-VC155 in the methods) (human) (UniProt Q8N1G2); test: split reporter; BiFC in HGC-27 cells co-transfected with the pBiFC-VN173 and pBiFC-VC155 constructs for 24 h, fixed, confocal microscopy; also in cells with sh-Scb or sh-SNORA37 #1
T3 sequence: T1 sequence

Substance: ELAV like RNA binding protein 1 (ELAVL1) (from UniProt Q15717 1-326)
- binding [1]: binds

Substance: polypyrimidine tract-binding protein 1 (PTBP1) (from UniProt P26599 1-557)
- binding [1]: binds

Substance: Flag-tagged ELAVL1 (full-length) (from UniProt Q15717 1-326)
- binding [2]: binds

Substance: ELAVL1 BiFC fusion (pBiFC-VC155-ELAVL1 in the legends; pBiFC-VN173 in the methods) (from UniProt Q15717 1-326)
- binding [3]: binds
